From paper PMC7532662

Molecular target: T1, SYTL4-GFP (UniProt Q96C24)
T1 sequence: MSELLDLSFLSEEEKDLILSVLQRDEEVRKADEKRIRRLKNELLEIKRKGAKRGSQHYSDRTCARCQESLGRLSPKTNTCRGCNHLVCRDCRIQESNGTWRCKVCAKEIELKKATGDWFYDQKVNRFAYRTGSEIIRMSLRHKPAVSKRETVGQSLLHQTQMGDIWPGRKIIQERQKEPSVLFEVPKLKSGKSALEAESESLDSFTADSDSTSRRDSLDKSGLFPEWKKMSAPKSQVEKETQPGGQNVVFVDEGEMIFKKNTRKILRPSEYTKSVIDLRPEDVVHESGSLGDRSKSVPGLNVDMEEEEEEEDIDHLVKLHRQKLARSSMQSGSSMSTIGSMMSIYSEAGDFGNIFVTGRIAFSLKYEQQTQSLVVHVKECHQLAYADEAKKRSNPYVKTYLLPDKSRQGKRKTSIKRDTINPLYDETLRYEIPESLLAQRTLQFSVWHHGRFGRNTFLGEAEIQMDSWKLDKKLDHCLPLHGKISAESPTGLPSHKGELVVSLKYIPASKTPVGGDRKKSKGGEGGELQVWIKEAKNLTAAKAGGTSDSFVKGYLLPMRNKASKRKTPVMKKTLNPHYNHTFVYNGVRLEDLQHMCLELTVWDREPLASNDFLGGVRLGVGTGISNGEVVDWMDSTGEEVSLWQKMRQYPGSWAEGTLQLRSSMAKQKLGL
Assay: co-IP; lysates of MDA-MB-231 (SYTL4-GFP) or 293T (D1/D2/D3-GFP) cells in Western/IP lysis buffer, anti-GFP nanobody-coated agarose, overnight at 4 °C, western blot

binding: binds
Substance: α-tubulin, endogenous

These are yes or no findings as the source states them, for the method shown. Binding seen in cells or lysates may run through a third protein. Binding can be weak; no strength is given. Where a sequence is shown, tags or fusion partners need not be part of it.
